According to PubChem BioAssay AID485314 (National Center for Advancing Translational Sciences (NCATS), 2010):
The campaign covered roughly 340,000 compounds. About 4,500 (1.3%) were called active. This list was built around the results that the source calls inconclusive (neither active nor inactive); the mix of calls is not that of the screen. The call rests on the fitted dose curve; in most records, active means well fitted inhibition curve with a large enough effect; inconclusive means small, poorly fitted or top-dose-only effect, or another doubt; inactive means no such curve, though single readings can be large or run the other way. A potency beside an inconclusive call is a rough fit, not a confirmed value.
On the % scale 0 is the no-effect control and ±100 the full control effect; potency means the concentration at half of the fitted maximal effect.

The compounds below were run against DNA polymerase beta (Homo sapiens) (UniProt P06746) (assay: qHTS Assay for Inhibitors of DNA Polymerase Beta). Details: Pol beta primer extension/strand displacement, fluorescence kinetic; activity change, negative = inhibition: at 114 µM (top of the series).
Method in brief: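 Enzyme-only controls used 10 nM Pol beta; buffer lacking enzyme served as negative control. Compound preincubated 15 min, then 50 nM substrate added; 0 and 10 min reads at room temperature.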
With `COc1ccc(CNC(=O)C2CCN(S(=O)(=O)c3ccc4c(c3)CCCN4C(C)=O)CC2)cc1` the “activity change, negative = inhibition” value was inactive: -0.176%.
In the case of `COc1ccc(-c2noc(-c3ccc(NC4CCCC4)c([N+](=O)[O-])c3)n2)cc1OC`, the Potency is reported as inconclusive: 89.1 µM [inhibitor, single point].
`COc1ccc(C2=Nc3ccc(OC(F)(F)F)cc3NC(c3cccnc3)=N2)cc1` was tested, and the Potency was inconclusive: 39.8 µM [inhibitor, single point].
For `COc1cc(NC(=O)CSc2nc(-c3ccc(C(C)C)cc3)no2)cc(OC)c1`, the “activity change, negative = inhibition” value was inactive: 9.4%.
For `Nc1nc(SCC(=O)Nc2ccccc2Sc2ccc(Cl)cc2)n[nH]1`, the “activity change, negative = inhibition” value was inactive: 21.1%.
`O=C(Nc1ccc([N+](=O)[O-])cc1)C(=O)Nc1cccc(C(=O)O)c1` was tested, and the “activity change, negative = inhibition” value was inactive: -19.8%.
In the case of `Cc1cccc(N2CCN(C(=O)COc3cccc4c3OC(C)(C)C4)CC2)c1C`, the Potency is reported as inconclusive: 89.1 µM [inhibitor, single point].
In the case of `Cc1ccc(N=Nc2ccc(N)cc2C)c(S(N)(=O)=O)c1`, the Potency is reported as inconclusive: 35.5 µM [inhibitor, single point].
With `CC(C)(C)OC(=O)CN1C(=O)S/C(=C\c2ccc(-c3cccc(C(=O)O)c3)o2)C1=O` the Potency was inconclusive: 50.1 µM [inhibitor, partial curve, poor fit].
With `O=S(=O)(NCc1ccccc1F)c1cccc(S(=O)(=O)N2CCOCC2)c1` the Potency was inconclusive: 63.1 µM [inhibitor, single point].
In the case of `c1ccc2c(NCCc3c[nH]c4ccccc34)c3ccccc3nc2c1`, the Potency is reported as active: 12.6 µM.
With `CC(=O)Nc1ccc(NC(=O)CCCCCn2nnc3ccccc3c2=O)cc1` the “activity change, negative = inhibition” value was inactive: 2.35%.
In the case of `O=C(/C=C/c1cccs1)Nc1sc2c(c1C(=O)O)CCCC2`, the Potency is reported as inconclusive: 39.8 µM [inhibitor, partial curve].
With `CC1CN(CCOCCSc2ccc(Cl)cc2)CC(C)O1` (centres undefined) the Potency was inconclusive: 89.1 µM [inhibitor, single point].
In the case of `CC1(C)CC(=O)C(C(C2=C(O)CC(C)(C)CC2=O)c2ccco2)C(=O)C1` (centres undefined), the Potency is reported as inconclusive: 28.2 µM [inhibitor, partial curve].
For `CC(=O)N1CCOc2ccc(S(=O)(=O)NCc3ccc(F)cc3)cc21`, the Potency was active: 100 µM.
`O=C(Cc1ccc(Cl)cc1)Nc1cccc(C(=O)Nc2ccccc2C(=O)O)c1` was tested, and the “activity change, negative = inhibition” value was inactive: 5.52%.
For `COc1ccc(N2Cc3cccc(C(=O)Nc4ccc(Cl)cc4)c3C2=O)cc1`, the Potency was active: 12.6 µM.
`COc1ccc(-c2cn3c(C)c(C(=O)N4CCc5ccccc5C4)sc3n2)cc1` was tested, and the Potency was inconclusive: 0.398 µM [inhibitor, full curve, poor fit].
With `CCc1ccc(CNC(=O)C2CCN(c3nnc(C)c4c(C)n(-c5ccc(C)cc5)nc34)CC2)cc1` the Potency was inconclusive: 63.1 µM [inhibitor, partial curve, poor fit].
For `CN1C(=O)CC(N2CCC(C(N)=O)(N3CCCCC3)CC2)C1=O` (centres undefined), the Potency was inconclusive: 89.1 µM [inhibitor, single point].
In the case of `Cc1ccc(-c2csc3ncnc(SCC(=O)Nc4nnc(C)s4)c23)cc1`, the Potency is reported as inconclusive: 50.1 µM [inhibitor, single point].
In the case of `CCOC(=O)C(NC(C)=O)(Nc1cccc(F)c1)C(F)(F)F` (centres undefined), the Potency is reported as inconclusive: 89.1 µM [inhibitor, single point].
With `CC(C)(Oc1ccc(Cl)cc1)C(=O)NCc1ccco1` the Potency was inconclusive: 20 µM [inhibitor, single point].
`CC(=O)c1cccc(NC(=O)c2cc(-c3ccco3)nc3ccccc23)c1` was tested, and the Potency was inconclusive: 70.8 µM [inhibitor, single point].
In the case of `COc1ccc(/C=N/Nc2nonc2N)cc1`, the “activity change, negative = inhibition” value is reported as inactive: 1.48%.
In the case of `NC1=NC(c2ccc(F)cc2)n2c(nc3ccccc32)N1` (centres undefined), the Potency is reported as inconclusive: 22.4 µM [inhibitor, partial curve, poor fit].
In the case of `N#CCCN(C(=O)CSc1nc2nc(-c3cccs3)cc(C(F)(F)F)c2c(=O)[nH]1)c1ccccc1`, the Potency is reported as inconclusive: 89.1 µM [inhibitor, single point].
`CCCCCCc1cc2cc(C(=O)Nc3ccc(OC)cc3)c(=O)oc2cc1O` was tested, and the Potency was inconclusive: 1.41 µM [inhibitor, full curve].
For `COCCCn1c(Cc2csc(Nc3ccccc3)n2)nnc1SCC(N)=O`, the Potency was inconclusive: 2.24 µM [inhibitor, single point].
With `O=C(NCc1ccccc1)C1Cc2ccccc2CN1C(=O)c1ccco1` (centres undefined) the Potency was inconclusive: 0.112 µM [inhibitor, full curve, poor fit].
In the case of `Cc1cc2nc(SCCOC(=O)Nc3ccc(Cl)cc3)nc(C)c2cc1C`, the Potency is reported as inconclusive: 89.1 µM [inhibitor, single point].
For `Cc1cccc(C(=O)NC(=S)N2CCN(C)CC2)c1`, the Potency was inconclusive: 6.31 µM [inhibitor, full curve, poor fit].
With `S=c1[nH]nc(-c2ccccn2)n1/N=C/c1ccccc1` the “activity change, negative = inhibition” value was inactive: 1.08%.
For `O=C(Nc1cc(C(=O)Nc2ccc(S(=O)(=O)O)cc2S(=O)(=O)O)cc(C(=O)Nc2ccc(S(=O)(=O)O)cc2S(=O)(=O)O)c1)Nc1cc(C(=O)Nc2ccc(S(=O)(=O)O)cc2S(=O)(=O)O)cc(C(=O)Nc2ccc(S(=O)(=O)O)cc2S(=O)(=O)O)c1`, the Potency was active: 0.224 µM.
For `Brc1ccc(-c2cn3ccccc3n2)cc1`, the Potency was inconclusive: 35.5 µM [inhibitor, partial curve].
`O=C(CC(c1ccco1)C1CCCCC1=O)c1ccccc1` (centres undefined) was tested, and the Potency was inconclusive: 35.5 µM [inhibitor, partial curve].
`O=C(Nc1ccc(Cl)cc1)N1CCC(CN2CCCCCC2)CC1` was tested, and the “activity change, negative = inhibition” value was inactive: 25.6%.
For `O=C(OCn1nnc2ccccc2c1=O)c1ccco1`, the Potency was inconclusive: 100 µM [inhibitor, single point].
`Cc1ccc(C)c(NC(=O)Cn2nnc(C(=O)NCc3cccs3)c2N)c1` was tested, and the Potency was inconclusive: 11.2 µM [inhibitor, full curve].
With `O=C1CCC(=O)N1CCSC(=S)N1CCSCC1` the Potency was inconclusive: 0.158 µM [inhibitor, full curve].
With `Cc1ccc(N2C(=O)CS(=O)(=O)C23C(=O)N(Cc2ccccc2C)c2ccccc23)cc1Cl` (centres undefined) the “activity change, negative = inhibition” value was inactive: 4.06%.
In the case of `O=C1C(C=Nc2ccccc2O)=C(O)c2ccccc21`, the Potency is reported as active: 35.5 µM.
For `Oc1ccc(/C=N/Nc2ncnc3c2ncn3Cc2ccccc2)cc1O`, the Potency was active: 3.55 µM.
With `O=C(CCC(=O)OCc1ccc(Cl)cc1)Nc1ccccc1` the Potency was inconclusive: 79.4 µM [inhibitor, single point].
For `CC1CCN(S(=O)(=O)c2ccc(NC(=O)c3ccco3)cc2)CC1`, the “activity change, negative = inhibition” value was inactive: -9.28%.
`COc1ccc(-c2cc(C(=O)NCc3ccco3)c3ccccc3n2)c(OC)c1` was tested, and the “activity change, negative = inhibition” value was inactive: 0.401%.
For `Cc1ccc(Cl)cc1N1CCN(C(=O)c2ccc3c(c2)N(Cc2ccccc2)CCS3)CC1`, the “activity change, negative = inhibition” value was inactive: 1.45%.
For `COc1ccc(-n2c(=O)c3c4c(sc3n(Cc3ccc(C(C)(C)C)cc3)c2=O)CCC4)c(OC)c1`, the “activity change, negative = inhibition” value was inactive: 12%.
`Cc1ccc(-c2ccc(CCC(=O)O)n2-c2cccc(C)c2C)cc1` was tested, and the Potency was inconclusive: 7.94 µM [inhibitor, single point].
`C(=N\NCc1ccccc1)/c1ccc2ncccc2c1` was tested, and the Potency was inconclusive: 89.1 µM [inhibitor, single point].
In the case of `COC1=C(N)C(=O)c2nc(-c3nc(C(=O)O)c(C)c(-c4ccc(OC)c(OC)c4O)c3N)ccc2C1=O`, the Potency is reported as active: 10 µM.
`CN(C)c1ccc(/C=N/Nc2cccc(C(=O)O)c2)cc1` was tested, and the Potency was inconclusive: 25.1 µM [inhibitor, single point].
With `COc1ccc(/C=N/NC(=O)c2ccc3nc[nH]c3c2)cc1OC` the Potency was active: 15.8 µM.
With `Cc1ccc(C)c(-n2nnc(C(=O)Nc3ccc(Br)cc3)c2C)c1` the “activity change, negative = inhibition” value was inactive: 16.8%.
With `COc1ccc(CCNC(=O)c2cc(=O)[nH]c3ccc(S(=O)(=O)N4CCCCC4C)cc23)cc1OC` (centres undefined) the “activity change, negative = inhibition” value was inactive: 0.86%.
With `Cc1cc(C)n(CC(=O)NCCC2=CCCCC2)n1` the Potency was inconclusive: 8.91 µM [inhibitor, full curve, poor fit].
In the case of `O=C(Nc1ccc2ccccc2c1)C(c1ccccc1)C1CCCC1` (centres undefined), the activity change, negative = inhibition is reported as inconclusive: -30.7% [inhibitor].
With `CCCCCCc1c(C)c2ccc(OCC(=O)N3CCC[C@H]3C(=O)O)c(C)c2oc1=O` the “activity change, negative = inhibition” value was inactive: 1.96%.
`Cc1ccc(NC(=O)c2ccc(Nc3c([N+](=O)[O-])cc([N+](=O)[O-])cc3[N+](=O)[O-])cc2)cc1` was tested, and the Potency was inconclusive: 25.1 µM [inhibitor, full curve, poor fit].
`Cc1cc(C)cc(NC(=O)COCc2cc(-c3ccc4c(c3)OCO4)on2)c1` was tested, and the Potency was inconclusive: 89.1 µM [inhibitor, single point].
For `C=CCn1c(=O)c2ccccc2n2c(SCC(=O)Nc3cc(C)on3)nnc12`, the Potency was inconclusive: 89.1 µM [inhibitor, single point].
With `CCOCCn1c(=O)c2c(nc3n2CCN3c2ccc(C)c(C)c2)n(C)c1=O` the Potency was active: 20 µM.
In the case of `COc1ccc(C(=O)c2c(C)oc3cc([N+](=O)[O-])c(O)c([N+](=O)[O-])c23)cc1`, the Potency is reported as inconclusive: 89.1 µM [inhibitor, single point].
With `CC1(C)Cc2nc3sc4c(SCC(=O)NCc5ccco5)ncnc4c3cc2CO1` the Potency was inconclusive: 22.4 µM [inhibitor, full curve].
For `CCOc1cc(/C=C2\NC(=O)NC2=O)cc([N+](=O)[O-])c1O`, the “activity change, negative = inhibition” value was inactive: 4.78%.
`Cc1ccc2c(c1)cc(C(=O)NCc1ccccc1C)n2C` was tested, and the “activity change, negative = inhibition” value was inactive: 0.808%.
In the case of `C=CCn1c(COc2cccc(C)c2)nnc1SCC(=O)NC(=O)NCc1ccco1`, the Potency is reported as active: 20 µM.
In the case of `O=C(/C=C/c1ccc(O)c(O)c1)OC1C(O)CC(OC(=O)/C=C/c2ccc(O)c(O)c2)(C(=O)O)CC1O` (centres undefined), the Potency is reported as active: 1.41 µM.
